In assay [1] the target is T1, caspase-3 (human (endogenous in HCT116)), P42574.
T1 chain: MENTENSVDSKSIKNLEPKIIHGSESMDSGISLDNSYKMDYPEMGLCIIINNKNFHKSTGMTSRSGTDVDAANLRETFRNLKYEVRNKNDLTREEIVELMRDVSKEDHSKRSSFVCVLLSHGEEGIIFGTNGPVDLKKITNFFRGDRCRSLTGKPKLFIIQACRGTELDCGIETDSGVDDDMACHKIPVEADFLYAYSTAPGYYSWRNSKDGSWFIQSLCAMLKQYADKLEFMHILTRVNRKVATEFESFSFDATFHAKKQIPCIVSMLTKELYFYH
The assay is described as follows: co-IP; IP with caspase-3 antibody (IP-Cas-3) from lysates of HCT116 WT or C3KO cells treated with DMSO or 5-FU (50 μg/ml) for 24 h, without z-VAD. To be noted: remark: other sources report otherwise.

The target in assay [2] is T2, pro-caspase-8 (human (endogenous in HCT116)), Q14790.
T2 chain: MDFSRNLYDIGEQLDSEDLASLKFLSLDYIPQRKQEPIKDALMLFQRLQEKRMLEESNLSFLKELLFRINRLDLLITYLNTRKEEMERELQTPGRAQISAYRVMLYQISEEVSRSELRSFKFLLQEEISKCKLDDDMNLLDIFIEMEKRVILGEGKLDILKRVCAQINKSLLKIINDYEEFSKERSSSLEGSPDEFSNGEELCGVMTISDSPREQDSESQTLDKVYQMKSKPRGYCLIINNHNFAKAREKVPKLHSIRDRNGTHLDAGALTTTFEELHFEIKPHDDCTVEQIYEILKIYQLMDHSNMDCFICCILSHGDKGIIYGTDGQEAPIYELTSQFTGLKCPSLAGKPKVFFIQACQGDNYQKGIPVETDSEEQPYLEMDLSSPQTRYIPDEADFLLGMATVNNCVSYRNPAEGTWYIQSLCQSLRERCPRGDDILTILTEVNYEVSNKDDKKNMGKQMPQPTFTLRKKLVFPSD
The assay is described as follows: co-IP; IP with caspase-8 antibody (IP-Cas-8) from lysates of HCT116 WT or C3KO cells treated with DMSO or 5-FU (50 μg/ml) for 24 h; also with z-VAD (20 μM) and with or without glutathione (GSH, 10 μM); blots quantified (Supplementary Tables S2, S3). To be noted: remark: other sources report otherwise.

No constants are given. Whether binding was seen depends on the method and setting. In cells and extracts the contact can be indirect. Some binding calls cover weakened binding; strength is not graded here.

B1: pro-caspase-8, Q14790 1-479 (protein)
chain: T2 chain
Consider B1, for which the binding entry in assay [1] is given as “binds”.

B2: caspase-3, P42574 1-277 (protein)
chain: T1 chain
For the molecule B2, the binding entry in assay [2] was “binds”.

Source of the values: article PMC4650537.
